Source: paper PMC2944120
Results are given in words; binding and its absence hold for the method and conditions named. Some results given as binding are weak or reduced against the parent protein; the word gives no strength. Tags and fused reporters may be left off the sequences shown.

Amino acid sequences for entries named in this document (tags omitted).
UniProt Q9WTL8: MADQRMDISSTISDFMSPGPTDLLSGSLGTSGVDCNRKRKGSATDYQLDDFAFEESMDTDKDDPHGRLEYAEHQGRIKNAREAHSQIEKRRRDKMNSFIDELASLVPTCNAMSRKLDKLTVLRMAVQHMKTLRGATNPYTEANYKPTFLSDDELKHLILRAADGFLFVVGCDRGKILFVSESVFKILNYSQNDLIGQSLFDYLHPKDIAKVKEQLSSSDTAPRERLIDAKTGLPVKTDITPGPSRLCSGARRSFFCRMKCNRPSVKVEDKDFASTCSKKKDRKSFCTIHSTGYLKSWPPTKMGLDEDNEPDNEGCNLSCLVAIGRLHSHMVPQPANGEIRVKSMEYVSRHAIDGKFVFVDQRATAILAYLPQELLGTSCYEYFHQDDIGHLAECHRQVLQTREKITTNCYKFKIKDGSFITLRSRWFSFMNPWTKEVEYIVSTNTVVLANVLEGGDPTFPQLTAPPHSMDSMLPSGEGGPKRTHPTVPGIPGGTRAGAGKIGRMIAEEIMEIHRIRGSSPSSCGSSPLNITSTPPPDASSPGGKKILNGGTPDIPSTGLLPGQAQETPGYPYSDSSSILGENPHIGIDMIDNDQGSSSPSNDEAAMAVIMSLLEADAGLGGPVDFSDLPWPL

Target: mouse BMAL1 (mBMAL1), GAL4 fusion from pBIND-mBmal1 (mouse) (UniProt Q9WTL8)
Experiment: two-hybrid; mammalian two-hybrid in NIH3T3 cells: pBIND-mBmal1 and pACT-mClock with the pGL5luc reporter, with or without pEGFP-mCry2 or pEGFP-mCry2-Mut, read 24 h after transfection

B1: mouse CLOCK (mCLOCK), GAL4 fusion from pBIND-mClock (protein, UniProt O08785 1-855)
chain: MVFTVSCSKMSSIVDRDDSSIFDGLVEEDDKDKAKRVSRNKSEKKRRDQFNVLIKELGSMLPGNARKMDKSTVLQKSIDFLRKHKETTAQSDASEIRQDWKPTFLSNEEFTQLMLEALDGFFLAIMTDGSIIYVSESVTSLLEHLPSDLVDQSIFNFIPEGEHSEVYKILSTHLLESDSLTPEYLKSKNQLEFCCHMLRGTIDPKEPSTYEYVRFIGNFKSLTSVSTSTHNGFEGTIQRTHRPSYEDRVCFVATVRLATPQFIKEMCTVEEPNEEFTSRHSLEWKFLFLDHRAPPIIGYLPFEVLGTSGYDYYHVDDLENLAKCHEHLMQYGKGKSCYYRFLTKGQQWIWLQTHYYITYHQWNSRPEFIVCTHTVVSYAEVRAERRRELGIEESLPETAADKSQDSGSDNRINTVSLKEALERFDHSPTPSASSRSSRKSSHTAVSDPSSTPTKIPTDTSTPPRQHLPAHEKMTQRRSSFSSQSINSQSVGPSLTQPAMSQAANLPIPQGMSQFQFSAQLGAMQHLKDQLEQRTRMIEANIHRQQEELRKIQEQLQMVHGQGLQMFLQQSNPGLNFGSVQLSSGNSNIQQLTPVNMQGQVVPANQVQSGHISTGQHMIQQQTLQSTSTQQSQQSVMSGHSQQTSLPSQTPSTLTAPLYNTMVISQPAAGSMVQIPSSMPQNSTQSATVTTFTQDRQIRFSQGQQLVTKLVTAPVACGAVMVPSTMLMGQVVTAYPTFATQQQQAQTLSVTQQQQQQQQQPPQQQQQQQQSSQEQQLPSVQQPAQAQLGQPPQQFLQTSRLLHGNPSTQLILSAAFPLQQSTFPPSHHQQHQPQQQQQLPRHRTDSLTDPSKVQPQ
binding: binds
